Test results taken from the supplement of paper PMC4683952.
Where a name gives a salt, the structure may show the parent alone. The list shows a part of the results. Cut-off read from the data, not from the text of the source: active = 2.5 or more and inactive = the rest. Single values are uncertain here, since repeats match poorly.

System: Lgr5 (MarsCy1-Lgr5-EGFP, U2OS)
Experiment: cell-surface Lgr5 expression (SCi1 fluorescence, background-subtracted) relative to WT control (fold of WT control); higher = more Lgr5 at the plasma membrane
Conditions: U2OS MarsCy1-Lgr5-EGFP stable; treatment time: overnight; library: Prestwick; 20 µM

Row | SMILES | cell-surface Lgr5 expression
1 | CCN1C[C@]2(COC)CC[C@H](OC)[C@]34C5C[C@@H]6[C@@H](OC)C[C@@]7(OCO[C@@]7(C13)[C@@H](O)C24)C5[C@H]6OC (stereo partly specified) [Delcorine] | active: 3.47
2 | CC(N)C(O)c1ccccc1 (stereo unspecified) [Phenylpropanolamine hydrochloride] | inactive: 1.94
3 | O=C(CCCN1CCC2(CC1)C(=O)NCN2c1ccccc1)c1ccc(F)cc1 [Spiperone] | inactive: 1.19
4 | CC(C)C[C@H]1C(=O)N2CCC[C@H]2[C@]2(O)O[C@](NC(=O)[C@@H]3C=C4c5cccc6[nH]cc(c56)C[C@H]4N(C)C3)(C(C)C)C(=O)N12 [Ergocryptine-alpha] | inactive: 1.63
5 | O=c1cccc2n1C[C@@H]1CNC[C@H]2C1 [Cytisine (-)] | inactive: 2.26
6 | NCC1(CC(=O)O)CCCCC1 [Gabapentin] | inactive: 2.09
7 | CC[C@@H](C)C(=O)O[C@H]1[C@H](O)[C@H]2[C@@H](CN3C[C@@H](C)CC[C@H]3[C@@]2(C)O)[C@@H]2C[C@]34O[C@]5(O)[C@@H](OC(=O)[C@@](C)(O)CC)CC[C@@]3(C)[C@@H]5[C@@H](OC(C)=O)[C@@H](OC(C)=O)[C@H]4[C@@]21O [Protoveratrine A] | inactive: 1.64
8 | O=c1[nH]oc2c1CCNC2 [THIP Hydrochloride] | inactive: 0.718
9 | c1cncc([C@@H]2CCCCN2)c1 [Anabasine] | inactive: 1.8
10 | C[C@@H]1C[C@@H]([C@H](O)CC2CC(=O)NC(=O)C2)C(=O)[C@@H](C)C1 [Cycloheximide] | inactive: 0.435
11 | COc1ccc2c(c1OC)C(=O)O[C@@H]2[C@H]1c2cc3c(cc2CCN1C)OCO3 [Hydrastine hydrochloride] | active: 2.97
12 | CC[C@@H](CO)NC(=O)[C@@H]1C=C2c3cccc4[nH]cc(c34)C[C@H]2N(C)C1 [Methylergometrine maleate] | inactive: 1.42
13 | CN1CCC2(C)c3cc(O)ccc3N(C)C12 (single isomer, unassigned; (-)) [(-)-Eseroline fumarate salt] | inactive: 1.03
14 | CCN1C[C@]2(C)CC[C@H](O)[C@]34C1[C@@H](C[C@H]23)[C@@]1(O)C[C@H](OC)[C@H]2C[C@@H]4[C@@H]1[C@H]2O [Karakoline] | inactive: 1.91
15 | CC(NC(C)(C)C)C(=O)c1cccc(Cl)c1 (stereo unspecified) [Bupropion hydrochloride] | inactive: 1.41
16 | CN[C@@H]1[C@@H](O)[C@@H](O[C@@H]2[C@@H](O)[C@H](O[C@H]3O[C@H](CN)CC[C@H]3N)[C@@H](N)C[C@H]2N)OC[C@]1(C)O.CN[C@@H]1[C@@H](O)[C@@H](O[C@@H]2[C@@H](O)[C@H](O[C@H]3O[C@H]([C@@H](C)N)CC[C@H]3N)[C@@H](N)C[C@H]2N)OC[C@]1(C)O.CN[C@@H]1[C@@H](O)[C@@H](O[C@@H]2[C@@H](O)[C@H](O[C@H]3O[C@H]([C@@H](C)NC)CC[C@H]3N)[C@@H](N)C[C@H]2N)OC[C@]1(C)O [Gentamicine sulfate] | inactive: 1.13
17 | COc1ccc2c(c1O)-c1c(OC)c(OC)cc3c1[C@H](C2)N(C)CC3 [Isocorydine (+)] | inactive: 1.3
18 | O=C1CC[C@@]2(O)[C@H]3Cc4ccc(O)c5c4[C@@]2(CCN3CC2CC2)[C@H]1O5 [Naltrexone hydrochloride dihydrate] | inactive: 1.62

Look-ups from above.
In cell-surface Lgr5 expression, C[C@@H]1C[C@@H]([C@H](O)CC2CC(=O)NC(=O)C2)C(=O)[C@@H](C)C1 [Cycloheximide] has the entry inactive: 0.435
In cell-surface Lgr5 expression, O=C1CC[C@@]2(O)[C@H]3Cc4ccc(O)c5c4[C@@]2(CCN3CC2CC2)[C@H]1O5 [Naltrexone hydrochloride dihydrate] has the entry inactive: 1.62

Remaining list, next part

Row | SMILES | cell-surface Lgr5 expression
19 | NCC(CC(=O)O)c1ccc(Cl)cc1 (racemic) [Baclofen (R,S)] | inactive: 0.837
20 | COc1cc(C(=O)OC2CC3CCC(C2)N3C)ccc1O (stereo unspecified) [Fillalbin] | inactive: 2.36
21 | N[C@@H]1C[C@H]1c1ccccc1 [Tranylcypromine hydrochloride] | inactive: 1.77
22 | CN1[C@@H]2C[C@@H](OC(=O)[C@H](CO)c3ccccc3)C[C@H]1[C@@H]1O[C@@H]12 [Scopolamine hydrochloride] | inactive: 2.26
23 | C[C@H]1CC[C@]2(NC1)O[C@H]1C[C@H]3[C@@H]4CC[C@H]5C[C@@H](O)CC[C@]5(C)[C@H]4CC[C@]3(C)[C@H]1[C@@H]2C [Tomatidine] | active: 2.69
24 | C(#CCN1CCCC1)CN1CCCC1 [Tremorine dihydrochloride] | inactive: 1.48
25 | C[C@]12CCC(=O)C=C1C=C[C@@H]1[C@@H]2CC[C@@]2(C)[C@H]1CC[C@@]2(O)CCC(=O)O [Canrenoic acid potassium salt] | inactive: 1.61
26 | C=CCN1CC[C@]23c4c5ccc(O)c4O[C@H]2C(=O)CC[C@@]3(O)[C@H]1C5 [Naloxone hydrochloride] | inactive: 1.1
27 | COP(=O)(OC)C(O)C(Cl)(Cl)Cl (stereo unspecified) [Trichlorfon] | inactive: 1.1
28 | C[C@]12C[C@H]3S[C@H]3C[C@@H]1CC[C@@H]1[C@@H]2CC[C@]2(C)[C@@H](O)CC[C@@H]12 [Epitiostanol] | inactive: 1.33
29 | CC(=O)O[C@H]1C[C@@H]2CC[C@@H]3[C@H](CC[C@@]4(C)[C@H]3C[C@H]([N+]3(C)CCCCC3)[C@@H]4OC(C)=O)[C@@]2(C)C[C@@H]1[N+]1(C)CCCCC1 [Pancuronium bromide] | inactive: 1.92
30 | COc1c2c(cc3c1OCO3)CCN(C)C2 [Hydrocotarnine hydrobromide] | inactive: 1.81
31 | O=c1ccc2cc(O[C@@H]3O[C@H](CO)[C@@H](O)[C@H](O)[C@H]3O)c(O)cc2o1 [Esculin Hydrate] | inactive: 2.37
32 | O=c1c2ccccc2[se]n1-c1ccccc1 [Ebselen] | inactive: 1.52
33 | COc1ccc(CN2CCNCC2)c(OC)c1OC [Trimetazidine dihydrochloride] | inactive: 1.84
34 | CN1[C@@H]2CC[C@H]1C[C@@H](OC(=O)[C@H](CO)c1ccccc1)C2 [Hyoscyamine (L)] | inactive: 1.25
35 | C[C@H](N)[C@H](O)c1ccc(O)c(O)c1 [Levonordefrin] | active: 3.94
36 | CC(C)N(CCC(C(N)=O)(c1ccccc1)c1ccccn1)C(C)C (stereo unspecified) [Disopyramide] | inactive: 1.32
